From US20040191297A1, “Carotenoid formulation” (priority 1997, published 2004)
This continues a long series; more values of the same kind are listed elsewhere.

Experiment: Lycopene content of rat serum
Assay type: in vivo, Fischer 344 rats
Details: female, Group 4 (128 mg/kg diet)
Procedure: Prior to termination, 3 animals from each group were placed in metabolic cages and 24-hour urine and fecal collections made for subsequent lycopene assay. Blood was collected by heart puncture under anesthesia for lycopene assay and all animals were sacrificed by CO2 anesthesia. Blood and feces were stored at −20° C. At necropsy, all major organ systems were grossly inspected. Any unusual appearing tissues were placed in formalin and saved for later histological examination.
Extraction of lycopene from serum was conducted by adding 1 ml of serum to 0.1 ml echinenone standard in ethanol and 0.9 ml ethanol. The mixture was then vortexed for 20 seconds, and 2.0 ml hexane added and mixed vigorously for 1 minute. The cloudy mixture was then centrifuged at 3,000 rpm for 15 minutes at 4° C. and the clear hexane layer was decanted. The above procedure was repeated 3-5×. The pooled hexane fraction was then dried under N2 gas at 60° C., and the residue dissolved in 0.5 ml HPLC solvent and analyzed by HPLC.

CC(C)=CCC/C(C)=C/C=C/C(C)=C/C=C/C(C)=C/C=C/C=C(C)/C=C/C=C(C)/C=C/C=C(\C)CCC=C(C)C [Lycopene]
Lycopene content of serum, Median: 308 ng/mL
Lycopene content of serum, Range: 262 to 369 ng/mL
Lycopene content of serum, mean ± SD: 313 ± 047 ng/mL
